# The full ranking holds about 33,000 sequences; the median of “E-score (-0.5 to 0.5)” is about -8e-05, and the highest 2% start at about 0.23. The list shows a part of the results.
# Biological target: T1, Nrg2 (UniProt P38082)
# T1 sequence: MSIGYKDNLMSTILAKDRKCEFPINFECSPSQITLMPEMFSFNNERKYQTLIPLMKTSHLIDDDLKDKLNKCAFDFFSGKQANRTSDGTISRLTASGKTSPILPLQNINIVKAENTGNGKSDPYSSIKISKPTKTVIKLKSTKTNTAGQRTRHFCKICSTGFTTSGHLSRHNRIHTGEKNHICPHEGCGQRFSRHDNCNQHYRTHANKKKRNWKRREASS
# Assay: PBM E-score (8-mer binding enrichment) (E-score (-0.5 to 0.5)); higher = stronger / more preferred TF binding
# Conditions: protein concentration: 100 nM; construct: GST-full length
# How it was run: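 Universal all-10-mer Agilent arrays, fresh or stripped once, were converted to double-stranded form by primer extension. GST-tagged yeast transcription factors from PURExpress in vitro transcription/translation, full-length or DNA-binding domain only, were applied at about 100-200 nM and detected with fluorescent anti-GST. After masliner normalisation, the Universal PBM Analysis Suite scored each ungapped eight-base word together with its reverse complement by E-score.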
row,Sequence,PBM E-score
1,GTCCCGGA,-0.0658
2,ACCGAATA,0.0469
3,CAAGACGG,-0.00028
4,GAGTTTTA,-0.0534
5,AGCACAAA,0.128
6,CACCATGC,-0.0346
7,TCTCGGCA,-0.0303
8,CCCCTTAA,0.0754
9,ACACATAA,0.0893
10,GCACGCAC,-0.138
11,TCACGCGA,0.0588
12,AACGGGAG,0.0507
13,AAGCTGCT,0.0396
14,TAGACGGA,0.0948
15,GCGGGACC,0.00581
16,GAGCTTTA,-0.0717
17,ACCTCACT,-0.0963
18,CCTCGAGA,0.156
19,ACACGTAG,-0.128
20,GTGGCTTA,-0.223
21,CGGTAGGC,-0.192
22,CTTCCAAC,-0.0441
23,GAGGCTTA,-0.134
24,CGCAGTCC,-0.095
25,CGTAGCAA,0.0661

row,Sequence,PBM E-score
1,AGTGTACA,0.00361
2,AGGGGAGA,-0.165
3,TTTTAAAA,-0.0578
4,TATAGTAA,0.207
5,CCCCCCTC,-0.399
6,TAGTACGA,0.0756
7,AAGCGCAT,0.0701
8,CGAGTCGC,-0.17
9,GACAACAC,0.0444
10,ACCAATTA,0.221
11,ACACTACA,0.108
12,CGTGACGA,0.0379
13,TCCCGCAA,0.198
14,GATCACGC,0.197
15,GGAGTTGA,0.0463
16,ACGGAGGC,-0.212
17,CCAGTAGG,-0.166
18,ACGAATAG,0.0297
19,CTCCTAGC,-0.17
20,TATTACCA,0.0363
21,ACTCTCCG,0.0617
22,ACCCACTG,0.0679
23,CAGTACCC,-0.0238
24,ACCTAAAA,0.00925
25,GGCGTTCA,-0.0558

# Shown with tabs: entries from further up.
row	Sequence	PBM E-score
5	CCCCCCTC	-0.399
6	TAGTACGA	0.0756
7	AAGCGCAT	0.0701

# Additional entries:

row,Sequence,PBM E-score
1,CGCATACA,0.121
2,TATACAGA,0.137
3,GCGGTAGA,-0.0506
4,ACTCTTAT,0.155
5,CATCGCAC,-0.0129
6,CGCGTCTC,0.0446
7,TCAGGACA,0.0731
8,GACCGTTA,-0.117
9,AATGAAAT,0.173
10,AACTCGGT,-0.00163
11,AACATTGT,0.119
12,AGTATCCC,0.118
13,AAAAAGAA,0.137
14,GCTCTACC,-0.329
15,TCTCTGAA,-0.14
16,ATAGAATC,-0.0242
17,AATTACGG,0.0369
18,ACATGATG,-0.184
19,GTTTTTAA,0.0561
20,AACCCATA,0.24
21,ATCGCCGG,0.00351
22,ACCGTCGG,-0.165
23,AGTGACTG,-0.0772
24,AGCTCAAC,0.031
25,ACCCCTCG,0.0338

# 4 entries picked at random from the list so far:
row,Sequence,PBM E-score
15,TCTCTGAA,-0.14
21,ATCGCCGG,0.00351
24,AGCTCAAC,0.031
18,ACATGATG,-0.184

# Continued:

row,Sequence,PBM E-score
1,GCTCCACC,-0.211
2,CAGTTATC,-0.233
3,AGTGCTGC,-0.0775
4,CTATGAGA,-0.103
5,CAGGTTAA,-0.0788
6,AAACTCTA,-0.126
7,AAAATCTA,-0.133
8,AGCTACAA,0.0651
9,ATGATGGC,-0.0437
10,ACGAGAGA,-0.0519
11,AAATCACA,-0.0167
12,ATTCAGTC,0.03
13,AAAATAGA,0.118
14,CGATCCCC,-0.116
15,AGCGGCCA,-0.223
16,CCCGTGCC,-0.14
17,GATGCTAC,0.0389
18,GAGACTCC,-0.134
19,CAAAAGTG,0.0547
20,CGCTGTCC,0.0681
21,AGGAGAGA,-0.188
22,GTCAAGTA,-0.192
23,CGAAAGTC,-0.0766
24,AGTAAAAG,0.154
25,GTCCACTA,0.16

row,Sequence,PBM E-score
1,CACTGCGC,0.0523
2,AAAGAGTG,-0.191
3,AACCCAGG,0.0903
4,ATTGCGAA,-0.0318
5,AGTCGGTA,-0.254
6,ACTCTACC,0.0105
7,ATCATGCC,0.0753
8,TGGAAGAA,0.0785
9,GGTGGTAA,0.109
10,ATAATTAG,0.228
11,AAAGCGTC,-0.117
12,TCCCATCA,-0.125
13,ACCATGTG,-0.0267
14,GTACAAAC,0.127
15,GCGTGGAA,-0.0158
16,TATGGTAA,0.179
17,GGCATGTA,0.00412
18,CCAGACCG,0.116
19,GTAAGAAA,0.0855
20,CATCCACC,-0.00806
21,AGCCTCGC,-0.149
22,AGCATTGG,-0.154
23,AACGAGTC,-0.0567
24,ATTAGTGA,0.114
25,GTGAGTCA,-0.0285

# Exported tab-delimited: entries from further up.
row	Sequence	PBM E-score
23	AGTGACTG	-0.0772
24	AGCTCAAC	0.031
25	ACCCCTCG	0.0338
1	GCTCCACC	-0.211

# (next part)

row,Sequence,PBM E-score
1,CATAACCA,-0.0432
2,AGCCCGGC,-0.168
3,CCCACAGC,-0.129
4,AAAGTACT,-0.034
5,CCGAAGAA,0.0175
6,ACGAACCC,-0.00702
7,TATACTCA,0.094
8,GCTCCTCA,-0.328
9,ATAATTTC,0.118
10,AGTCAGTA,0.00919
11,ATCCTATC,-0.044
12,GTGAGACA,0.0224
13,GCCAAACC,-0.0932
14,AGTCCTTC,-0.281
15,ATAGGAAA,0.14
16,CCCATCCA,0.124
17,CGATGCCG,-0.161
18,CGAGCGGC,0.0741
19,CAAAGCAA,0.265
20,ACTCAACC,0.168
21,GCCGGCCA,0.143
22,ACCCCAAT,0.0778
23,AATTCCGG,0.0827
24,GAGCTAAC,-0.0676
25,AGTCAGTC,-0.127

row,Sequence,PBM E-score
1,ACCGCATA,0.0956
2,CCGGCGTC,-0.0857
3,AGTTGACA,0.0871
4,CAATATAC,-0.0092
5,CTCGCGTC,0.117
6,ACACCGAT,-0.0875
7,ACAGACAC,-0.0421
8,GCTCATCA,0.0152
9,CCTACATC,-0.00525
10,GCCATCCC,-0.141
11,CGTGCTTA,-0.0688
12,ACTATTCT,-0.0551
13,AGTGCTAC,-0.0774
14,CAATAACA,0.0577
15,CAAGCTGC,0.076
16,CCAAGGAC,-0.0738
17,AGAATTGC,0.0643
18,TGAGCAAA,0.0883
19,TCGATCAA,0.00221
20,AGAACGCA,0.123
21,TCTGTCAA,0.0191
22,CTGTCTGA,-0.0393
23,ATGTCCGC,-0.0786
24,TCGGACAA,0.143
25,ATGGTCCA,-0.188

row,Sequence,PBM E-score
1,ATAAGGTG,0.16
2,GACATCGC,-0.0412
3,CGTGCATA,0.0409
4,TTAGATAA,-0.0515
5,CCCCATCC,0.0659
6,CACAAAAC,0.15
7,GAATTATC,-0.00415
8,AATCACGA,-0.206
9,CGGTTTCC,0.0521
10,CAACAGTC,-0.144
11,CTCGTATC,0.13
12,AGGTACAT,-0.16
13,CCCTAGGA,-0.162
14,CGAAATAC,0.159
15,GTTGCGTA,0.0751
16,AAGCTATA,-0.187
17,CAAGGGTC,0.376
18,GGCTCTAA,-0.0578
19,AGCAAATA,0.132
20,CAGCCATG,0.0503
21,CCCGCTTA,-0.0735
22,GCAGCTCC,-0.111
23,AGGTCAAG,0.0847
24,CGTAACGC,-0.0595
25,TACTAGAA,-0.0635

row,Sequence,PBM E-score
1,GGTTAGAA,-0.215
2,ATCTCGTA,-0.00102
3,GCTAGCTA,-0.0275
4,CGAGGTGC,0.178
5,AACGGAGT,0.12
6,ACGTAAGC,-0.145
7,ATGGAGAC,-0.0226
8,ATTATATC,0.106
9,CTCGAGTC,-0.049
10,CATGCACC,0.0198
11,GAGCCCAA,0.0286
12,GGTATGAA,0.131
13,AAGATTGC,0.126
14,CTGCGTGA,0.094
15,GGGTTGCA,0.021
16,CGGTATTC,0.0764
17,CCAGATAG,-0.01
18,AAAGTTAT,0.222
19,GTCCCACA,0.0612

# From the supplement of paper PMC3334620
